Reference: the supplement of paper PMC12067093, “Discovery and optimisation of a covalent ligand for TRIM25 and its application to targeted protein ubiquitination” (Chemical Science, 2025)
Some of the results follow.

Chains of the proteins cited; added tags and fusions are not shown. Lines headed by an entry give the natural chain unless they say otherwise; changes in a name come on top.
UniProt P49902: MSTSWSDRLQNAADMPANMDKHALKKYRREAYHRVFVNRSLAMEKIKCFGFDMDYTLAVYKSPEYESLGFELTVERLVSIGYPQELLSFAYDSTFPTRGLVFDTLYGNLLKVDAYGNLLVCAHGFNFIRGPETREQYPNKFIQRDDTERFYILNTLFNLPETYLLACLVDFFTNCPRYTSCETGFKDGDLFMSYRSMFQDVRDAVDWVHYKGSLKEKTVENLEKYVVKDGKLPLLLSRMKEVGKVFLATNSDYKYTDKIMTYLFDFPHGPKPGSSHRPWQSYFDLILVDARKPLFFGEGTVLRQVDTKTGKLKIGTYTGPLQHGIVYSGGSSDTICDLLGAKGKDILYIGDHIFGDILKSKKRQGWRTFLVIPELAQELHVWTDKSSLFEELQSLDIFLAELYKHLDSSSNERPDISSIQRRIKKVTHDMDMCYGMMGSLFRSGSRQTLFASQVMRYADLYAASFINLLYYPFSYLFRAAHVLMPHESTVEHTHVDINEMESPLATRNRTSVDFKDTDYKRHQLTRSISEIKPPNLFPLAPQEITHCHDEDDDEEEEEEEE
UniProt O75607: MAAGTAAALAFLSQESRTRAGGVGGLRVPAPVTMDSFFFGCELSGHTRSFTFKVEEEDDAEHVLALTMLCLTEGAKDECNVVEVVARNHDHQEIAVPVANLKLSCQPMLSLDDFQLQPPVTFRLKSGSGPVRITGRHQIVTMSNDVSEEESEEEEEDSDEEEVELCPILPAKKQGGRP
UniProt O96028: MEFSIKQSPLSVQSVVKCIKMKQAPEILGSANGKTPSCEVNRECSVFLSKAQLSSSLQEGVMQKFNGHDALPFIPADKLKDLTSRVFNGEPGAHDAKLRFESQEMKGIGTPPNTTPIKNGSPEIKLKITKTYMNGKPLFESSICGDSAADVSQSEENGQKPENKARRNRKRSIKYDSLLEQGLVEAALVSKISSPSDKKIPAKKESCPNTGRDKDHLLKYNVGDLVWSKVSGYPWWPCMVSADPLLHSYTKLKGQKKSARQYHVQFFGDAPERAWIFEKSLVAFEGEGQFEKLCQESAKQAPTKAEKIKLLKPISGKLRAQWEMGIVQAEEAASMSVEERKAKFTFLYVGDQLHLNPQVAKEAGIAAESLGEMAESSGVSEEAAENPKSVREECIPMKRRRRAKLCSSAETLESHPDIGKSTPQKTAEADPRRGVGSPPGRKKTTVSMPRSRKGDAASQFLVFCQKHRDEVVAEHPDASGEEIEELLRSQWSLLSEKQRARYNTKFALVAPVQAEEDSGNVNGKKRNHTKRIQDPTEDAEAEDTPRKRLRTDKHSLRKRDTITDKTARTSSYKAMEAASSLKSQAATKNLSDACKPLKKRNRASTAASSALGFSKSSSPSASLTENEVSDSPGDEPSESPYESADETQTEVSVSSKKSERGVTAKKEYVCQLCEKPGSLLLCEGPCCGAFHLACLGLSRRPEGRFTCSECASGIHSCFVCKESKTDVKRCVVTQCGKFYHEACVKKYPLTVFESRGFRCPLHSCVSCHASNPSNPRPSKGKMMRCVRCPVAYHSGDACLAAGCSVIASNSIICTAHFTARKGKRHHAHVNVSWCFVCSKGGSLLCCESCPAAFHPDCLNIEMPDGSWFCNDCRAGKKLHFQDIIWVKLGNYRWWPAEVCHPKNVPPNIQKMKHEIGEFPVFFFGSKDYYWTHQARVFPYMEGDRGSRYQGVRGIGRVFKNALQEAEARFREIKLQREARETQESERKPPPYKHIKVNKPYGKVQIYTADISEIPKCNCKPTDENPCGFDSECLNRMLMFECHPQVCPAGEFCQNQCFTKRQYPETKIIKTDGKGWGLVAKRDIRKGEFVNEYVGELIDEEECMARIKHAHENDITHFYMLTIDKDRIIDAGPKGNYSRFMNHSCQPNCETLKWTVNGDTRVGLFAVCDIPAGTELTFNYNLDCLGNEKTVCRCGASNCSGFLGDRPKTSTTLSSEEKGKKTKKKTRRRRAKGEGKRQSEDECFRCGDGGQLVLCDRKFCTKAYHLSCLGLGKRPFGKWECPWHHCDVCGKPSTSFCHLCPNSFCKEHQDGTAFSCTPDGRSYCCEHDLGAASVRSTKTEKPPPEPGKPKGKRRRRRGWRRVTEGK
UniProt Q9Y639: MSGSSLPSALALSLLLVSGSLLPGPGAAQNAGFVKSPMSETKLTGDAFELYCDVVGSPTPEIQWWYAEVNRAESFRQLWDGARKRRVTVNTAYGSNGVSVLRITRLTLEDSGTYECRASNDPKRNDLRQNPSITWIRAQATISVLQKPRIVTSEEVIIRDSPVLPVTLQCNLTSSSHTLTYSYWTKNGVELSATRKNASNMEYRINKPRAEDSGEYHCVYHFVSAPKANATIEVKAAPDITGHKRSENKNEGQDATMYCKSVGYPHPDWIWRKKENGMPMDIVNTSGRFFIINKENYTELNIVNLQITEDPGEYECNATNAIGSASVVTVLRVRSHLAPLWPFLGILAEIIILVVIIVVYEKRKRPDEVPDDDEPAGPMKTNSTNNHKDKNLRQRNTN
UniProt Q3KNT7: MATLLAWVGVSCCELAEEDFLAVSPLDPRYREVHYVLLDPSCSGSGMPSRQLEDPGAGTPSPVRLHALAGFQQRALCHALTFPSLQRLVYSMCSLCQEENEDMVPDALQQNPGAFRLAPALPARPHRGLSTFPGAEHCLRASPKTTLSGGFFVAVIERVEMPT
UniProt Q9Y3C1: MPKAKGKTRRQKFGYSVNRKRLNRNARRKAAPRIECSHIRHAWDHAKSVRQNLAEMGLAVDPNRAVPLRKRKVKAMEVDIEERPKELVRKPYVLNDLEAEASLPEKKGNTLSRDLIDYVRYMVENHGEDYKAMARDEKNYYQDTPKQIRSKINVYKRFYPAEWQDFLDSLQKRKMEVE
UniProt Q9H0G5: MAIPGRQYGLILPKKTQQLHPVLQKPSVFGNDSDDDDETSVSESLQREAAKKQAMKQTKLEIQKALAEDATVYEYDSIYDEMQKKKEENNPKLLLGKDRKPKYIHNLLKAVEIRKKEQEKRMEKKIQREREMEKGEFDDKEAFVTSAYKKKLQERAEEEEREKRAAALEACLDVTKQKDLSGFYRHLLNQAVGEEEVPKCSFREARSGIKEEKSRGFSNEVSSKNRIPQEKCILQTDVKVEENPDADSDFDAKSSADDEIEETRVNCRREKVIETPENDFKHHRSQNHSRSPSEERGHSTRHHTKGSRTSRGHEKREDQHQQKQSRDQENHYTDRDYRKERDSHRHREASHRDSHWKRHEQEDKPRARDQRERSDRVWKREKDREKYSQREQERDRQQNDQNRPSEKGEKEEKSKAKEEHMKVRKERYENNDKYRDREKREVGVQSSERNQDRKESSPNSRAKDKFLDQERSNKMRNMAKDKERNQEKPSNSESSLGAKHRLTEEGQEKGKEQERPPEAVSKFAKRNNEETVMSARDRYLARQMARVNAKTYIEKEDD
UniProt Q9BSC4: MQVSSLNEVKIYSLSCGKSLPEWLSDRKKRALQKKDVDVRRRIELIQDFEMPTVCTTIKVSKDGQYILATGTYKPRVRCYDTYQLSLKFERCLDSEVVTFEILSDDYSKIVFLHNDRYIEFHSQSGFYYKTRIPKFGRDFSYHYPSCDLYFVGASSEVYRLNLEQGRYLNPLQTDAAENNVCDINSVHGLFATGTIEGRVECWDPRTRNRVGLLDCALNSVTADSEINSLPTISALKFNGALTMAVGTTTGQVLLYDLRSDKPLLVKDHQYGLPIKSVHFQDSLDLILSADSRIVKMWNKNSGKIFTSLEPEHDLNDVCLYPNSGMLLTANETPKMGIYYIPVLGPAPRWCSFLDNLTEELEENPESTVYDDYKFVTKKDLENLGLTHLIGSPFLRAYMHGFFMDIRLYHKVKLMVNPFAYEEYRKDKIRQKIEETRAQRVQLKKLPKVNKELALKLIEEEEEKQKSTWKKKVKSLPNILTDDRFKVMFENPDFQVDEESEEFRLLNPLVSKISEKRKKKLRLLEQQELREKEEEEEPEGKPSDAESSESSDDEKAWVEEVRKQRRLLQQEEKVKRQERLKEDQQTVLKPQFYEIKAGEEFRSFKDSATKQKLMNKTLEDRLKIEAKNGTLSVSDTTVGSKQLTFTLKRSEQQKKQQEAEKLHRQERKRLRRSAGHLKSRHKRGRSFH
UniProt Q9H7Z3: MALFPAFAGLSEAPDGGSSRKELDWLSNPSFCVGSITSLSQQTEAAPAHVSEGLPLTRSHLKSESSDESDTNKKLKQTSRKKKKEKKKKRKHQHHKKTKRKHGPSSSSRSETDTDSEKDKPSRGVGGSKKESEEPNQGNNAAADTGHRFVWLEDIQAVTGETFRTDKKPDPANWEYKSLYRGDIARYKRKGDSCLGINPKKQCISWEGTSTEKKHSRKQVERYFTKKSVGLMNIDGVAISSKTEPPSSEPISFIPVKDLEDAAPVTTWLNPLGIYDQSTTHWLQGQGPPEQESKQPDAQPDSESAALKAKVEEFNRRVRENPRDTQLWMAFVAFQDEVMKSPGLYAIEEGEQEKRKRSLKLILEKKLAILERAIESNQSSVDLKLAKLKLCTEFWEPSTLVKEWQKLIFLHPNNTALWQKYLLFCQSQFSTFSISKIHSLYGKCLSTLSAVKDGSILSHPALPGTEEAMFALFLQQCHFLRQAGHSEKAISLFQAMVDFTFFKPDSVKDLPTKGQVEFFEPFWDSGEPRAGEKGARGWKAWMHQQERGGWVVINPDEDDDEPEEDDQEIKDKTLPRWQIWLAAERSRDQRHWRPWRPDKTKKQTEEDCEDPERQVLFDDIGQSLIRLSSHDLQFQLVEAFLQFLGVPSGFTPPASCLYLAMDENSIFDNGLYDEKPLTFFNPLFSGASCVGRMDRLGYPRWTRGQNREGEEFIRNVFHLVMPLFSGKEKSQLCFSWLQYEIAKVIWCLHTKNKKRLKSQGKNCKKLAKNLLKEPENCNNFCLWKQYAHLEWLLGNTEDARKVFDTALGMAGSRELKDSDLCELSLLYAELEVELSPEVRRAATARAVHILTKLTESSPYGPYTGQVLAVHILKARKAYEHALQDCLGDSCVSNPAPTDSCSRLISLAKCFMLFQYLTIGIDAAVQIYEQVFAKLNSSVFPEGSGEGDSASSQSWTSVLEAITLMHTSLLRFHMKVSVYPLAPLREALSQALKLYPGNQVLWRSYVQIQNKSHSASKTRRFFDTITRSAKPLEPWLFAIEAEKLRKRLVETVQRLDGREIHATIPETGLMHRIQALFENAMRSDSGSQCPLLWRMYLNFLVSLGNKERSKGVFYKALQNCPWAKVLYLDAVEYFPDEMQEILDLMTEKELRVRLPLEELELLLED
UniProt P46087: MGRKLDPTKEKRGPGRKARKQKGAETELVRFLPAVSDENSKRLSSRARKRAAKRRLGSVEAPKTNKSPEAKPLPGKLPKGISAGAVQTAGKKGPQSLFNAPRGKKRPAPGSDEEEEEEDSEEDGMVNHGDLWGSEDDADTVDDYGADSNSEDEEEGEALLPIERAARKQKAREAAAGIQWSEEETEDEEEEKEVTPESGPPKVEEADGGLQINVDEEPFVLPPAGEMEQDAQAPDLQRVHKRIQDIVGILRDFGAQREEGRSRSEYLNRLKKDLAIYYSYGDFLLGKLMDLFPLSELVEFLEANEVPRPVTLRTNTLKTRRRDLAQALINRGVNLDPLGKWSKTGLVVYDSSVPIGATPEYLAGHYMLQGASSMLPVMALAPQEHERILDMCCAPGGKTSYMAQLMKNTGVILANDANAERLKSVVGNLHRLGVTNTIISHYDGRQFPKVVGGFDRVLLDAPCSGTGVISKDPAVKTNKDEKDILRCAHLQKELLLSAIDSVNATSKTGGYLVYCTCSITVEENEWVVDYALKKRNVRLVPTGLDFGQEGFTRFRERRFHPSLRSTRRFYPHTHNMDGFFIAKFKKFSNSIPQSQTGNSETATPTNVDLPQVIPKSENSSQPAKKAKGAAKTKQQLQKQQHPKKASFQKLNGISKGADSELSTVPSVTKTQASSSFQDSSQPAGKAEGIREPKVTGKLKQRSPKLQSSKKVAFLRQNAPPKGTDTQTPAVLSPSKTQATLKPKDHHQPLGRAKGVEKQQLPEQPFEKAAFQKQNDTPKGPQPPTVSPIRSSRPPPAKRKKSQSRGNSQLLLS
UniProt Q9NXX6: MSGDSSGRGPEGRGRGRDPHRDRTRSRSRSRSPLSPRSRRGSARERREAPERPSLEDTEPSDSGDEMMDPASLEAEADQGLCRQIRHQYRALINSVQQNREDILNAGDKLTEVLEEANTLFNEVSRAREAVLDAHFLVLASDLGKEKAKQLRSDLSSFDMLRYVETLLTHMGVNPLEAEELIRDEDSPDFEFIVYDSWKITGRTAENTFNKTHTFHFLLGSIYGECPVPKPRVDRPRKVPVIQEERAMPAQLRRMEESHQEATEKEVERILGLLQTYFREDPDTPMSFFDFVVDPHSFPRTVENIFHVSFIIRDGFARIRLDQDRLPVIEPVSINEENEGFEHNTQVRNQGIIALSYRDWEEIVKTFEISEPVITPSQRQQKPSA

compound: Cc1cc(ccc1-c1ccccc1)C(=O)N1CCCN(CC1)C(=O)CCl [compound 10]; test: probe-labelled cysteine peptide fold change vs DMSO (competition) (log2 fold change); higher = less target engagement (more negative = stronger competition); details: 10 µM; THP-1; incubation time: 4 h
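Note: competitive profiling in live THP-1 cells: cysteine peptides tagged with an iodoacetamide desthiobiotin (IA-DTB) probe, intensity after compound treatment relative to DMSO-treated cells.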

Compared with “NSUN5_Q96P11_278+279_AGVSCCELAEEDFLAVSPSDPR (UniProt Q96P11)”, “NOP58_Q9Y2X3_439_TYDPSGDSTLPTCSK (UniProt Q9Y2X3)” is lower in “probe-labelled cysteine peptide fold change” value: 0.223 for the first, -0.00873 for the second.

First: NOL6_Q9H6R4_486_LQAACHR (UniProt Q9H6R4)
Second: NT5C2_P49902_121_VDAYGNLLVCAHGFNFIR (UniProt P49902)
The “probe-labelled cysteine peptide fold change” value of the first is higher: 0.0765 for the first, -0.189 for the second.

Going from “NOL11_Q9H8H0_286_ECLSVWNIK (UniProt Q9H8H0)” to “NSD1_Q96L73_2508_GCVSDPLQTSGK (UniProt Q96L73)”, the “probe-labelled cysteine peptide fold change” value falls from -0.0589 to -0.278.

First: NT5C3A_Q9H0P0_120_LVTDECR (UniProt Q9H0P0)
Second: NSF_P46459_11+21_CPTDELSLTNCAVVNEK (UniProt P46459)
The “probe-labelled cysteine peptide fold change” value of the first is higher: 0.134 for the first, -0.491 for the second.

Going from “NPM3_O75607_105_LSCQPMLSLDDFQLQPPVTFR (UniProt O75607)” to “NMNAT3_Q96T66_134_LLCGADVLK (UniProt Q96T66)”, the “probe-labelled cysteine peptide fold change” value falls from 0.583 to 0.0387.

First: NSD2_O96028_594_NLSDACK (UniProt O96028)
Second: NME7_Q9Y5B8_356_IQNAVHCTDLPEDGLLEVQYFFK (UniProt Q9Y5B8)
The “probe-labelled cysteine peptide fold change” value of the first is higher: -0.0335 for the first, -0.153 for the second.

First: NLRP3_Q96P20_941_LLCEGLLHPDCK (UniProt Q96P20)
Second: NPTN_Q9Y639_259_NEGQDATMYCK (UniProt Q9Y639)
The “probe-labelled cysteine peptide fold change” value of the first is lower: -0.14 for the first, -0.0545 for the second.

Going from “NSUN5P1_Q3KNT7_77_ALCHALTFPSLQR (UniProt Q3KNT7)” to “NT5DC2_Q9H857_475_FSDLYMASLSCLLNYR (UniProt Q9H857)”, the “probe-labelled cysteine peptide fold change” value falls from 0.0525 to -0.0617.

Going from “NOP16_Q9Y3C1_36_IECSHIR (UniProt Q9Y3C1)” to “NSRP1_Q9H0G5_232_CILQTDVK (UniProt Q9H0G5)”, the “probe-labelled cysteine peptide fold change” value falls from -0.17 to -0.534.

Compared with “NSD2_O96028_38_TPSCEVNR (UniProt O96028)”, “NNT_Q13423_1073_KTCDALQAK (UniProt Q13423)” is lower in “probe-labelled cysteine peptide fold change” value: -0.0849 for the first, -0.378 for the second.

First: NTMT1_Q9BV86_64_TGTSCALDCGAGIGR (UniProt Q9BV86)
Second: NPEPPSL1_A6NEC2_339_NSCSSSR (UniProt A6NEC2)
The “probe-labelled cysteine peptide fold change” value of the first is higher: 0.0971 for the first, -0.165 for the second.

Going from “NPC1_O15118_177_ALGLLCGK (UniProt O15118)” to “NMI_Q13287_295_CSLGQPHIAYFEE (UniProt Q13287)”, the “probe-labelled cysteine peptide fold change” value rises from -0.118 to 0.00396.

First: NOL10_Q9BSC4_79_CYDTYQLSLK (UniProt Q9BSC4)
Second: NPLOC4_Q8TAT6_399_DECLLPCK (UniProt Q8TAT6)
The “probe-labelled cysteine peptide fold change” value of the first is higher: 0.154 for the first, 0.0365 for the second.

Compared with “NRDE2_Q9H7Z3_900_AYEHALQDCLGDSCVSNPAPTDSCSR (UniProt Q9H7Z3)”, “NOL10_Q9BSC4_55_RIELIQDFEMPTVCTTIK (UniProt Q9BSC4)” is higher in “probe-labelled cysteine peptide fold change” value: -0.0512 for the first, -0.0229 for the second.

Going from “NOP2_P46087_393_ILDMCCAPGGK (UniProt P46087)” to “NSD3_Q9BZ95_1292_SACASTNEEK (UniProt Q9BZ95)”, the “probe-labelled cysteine peptide fold change” value rises from -0.19 to -0.153.

Going from “NOL8_Q76FK4_556_QCIRPAEIVASLLEGEENTCGK (UniProt Q76FK4)” to NOP2_P46087_487_CAHLQK (UniProt P46087), the “probe-labelled cysteine peptide fold change” value rises from -0.0448 to -0.0171.

Going from “NRDC_O43847_18_VTVAAVCATRRKLCEAGR (UniProt O43847)” to “NRDE2_Q9H7Z3_1119_ALQNCPWAK (UniProt Q9H7Z3)”, the “probe-labelled cysteine peptide fold change” value rises from -0.246 to -0.0189.

Compared with “NSUN5P1_Q3KNT7_138_GLSTFPGAEHCLR (UniProt Q3KNT7)”, “NOTCH2_Q04721_427_GADCTEDVDECAMANSNPCEHAGK (UniProt Q04721)” is higher in “probe-labelled cysteine peptide fold change” value: -0.0323 for the first, 0.149 for the second.

First: NSUN4_Q96CB9_197_TLALLQTGCCR (UniProt Q96CB9)
Second: NSMCE4A_Q9NXX6_226_THTFHFLLGSIYGECPVPKPR (UniProt Q9NXX6)
The “probe-labelled cysteine peptide fold change” value of the first is higher: -0.0373 for the first, -0.197 for the second.
